# Source: PubChem BioAssay AID540256 (National Center for Advancing Translational Sciences (NCATS), 2011)
# The whole screen tested about 300,000 compounds, of which about 3,700 (1.2%) were called active. This list was built around the results that the source calls inconclusive (neither active nor inactive); the mix of calls is not that of the screen. Calls come from the whole dose curve; tested in HEK293 cells. Potencies of inconclusive entries are doubtful fits and often do not repeat.
# Experiment: qHTS for Inhibitors of binding or entry into cells for Lassa Virus; note: nearly all actives have a fitted effect of over 50% in size
# Details: Lassa virus pseudotype entry inhibition, cell reporter; series mostly up to 37.9 µM
# Potency is the fitted concentration of half-maximal effect.
row,SMILES,Potency
1,C=CCN1CC(O)=C(c2nc3ccccc3[nH]2)C1=N,"inconclusive: 35.5 µM [activator, single point]"
2,Cc1ccc(O)c(NC(=S)NC(=O)C(C)C)c1,inactive
3,Cc1ccc(C(=O)Nc2ccccc2C(=O)O)cc1S(=O)(=O)N1CCCCCC1,"inconclusive: 6.31 µM [activator, single point]"
4,O=C(NN=C(Cc1ccccc1)Cc1ccccc1)c1ccccc1F,inactive
5,COCC(C)NC(=O)c1cnn2c(C(F)F)cc(-c3ccccc3)nc12 (stereo not given),inactive
6,CN(C(=O)Cn1cc(S(=O)(=O)N2CCN(c3ccccc3F)CC2)c2ccccc2c1=O)c1ccc(Cl)cc1,inactive
7,Cc1cccc(-n2nc(C)cc2N)c1,inactive
8,O=C(COC(=O)c1ccccc1C(=O)N1CCN(c2ccccc2)CC1)Nc1ccccc1,inactive
9,COc1cc2c(cc1O)C[C@H]1NCCc3cc4c(c-2c31)OCO4,"inconclusive: 16.4 µM [inhibitor, partial curve, poor fit]"
10,Cc1nc(C)c2c(=O)cc(-c3ccccc3)[nH]c2n1,"inconclusive: 2.91 µM [inhibitor, full curve, poor fit]"
11,Cc1nc2cc(N3CCN(C)CC3)c(NC(=O)Cc3ccccc3)cc2c(=O)n1Cc1ccccc1,"inconclusive: 2.82 µM [inhibitor, full curve, poor fit]"
12,N#C/C(=N\Nc1ccc([N+](=O)[O-])cc1)C(N)=S,"inconclusive: 20 µM [inhibitor, single point]"
13,O=C(O)CSCc1cnn(-c2ccccc2)c1-n1cccc1,inactive
14,CC(C)(C)c1csc(Sc2ccc([N+](=O)[O-])cn2)n1,"inconclusive: 1.26 µM [inhibitor, single point]"
15,CCc1ccc(-c2nc(CN3CCCC(C(=O)NCc4ccc(C)cc4)C3)c(C)o2)cc1 (stereo not given),"inconclusive: 20 µM [activator, single point]"
16,CCOc1ccc(NS(=O)(=O)c2cccc(C(=O)NCC3(N(C)C)CCCCC3)c2)cc1,"inconclusive: 35.5 µM [inhibitor, single point]"
17,COc1ccc(-c2[nH]c(-c3ccccc3)nc2SCC(=O)Nc2ccc3c(c2)OCCO3)cc1,"inconclusive: 35.5 µM [inhibitor, single point]"
18,O=C(c1ccc(-c2nnc(Nc3cccc(Cl)c3)c3ccccc23)cc1)N1C[C@H]2C[C@H](C1)c1cccc(=O)n1C2,"inconclusive: 6.31 µM [inhibitor, partial curve, poor fit]"
19,CC(N)C(=O)c1ccco1 (stereo not given),inactive
20,CCOc1cc(C2NC(=O)c3c(sc4c3CCN(C)C4)N2)ccc1OC(=O)c1ccccc1Cl (stereo not given),inactive
21,COc1cc2cc(C(c3nnnn3C(C)(C)C)N3CCc4ccccc4C3)c(=O)[nH]c2cc1OC (stereo not given),"inconclusive: 0.0046 µM [inhibitor, full curve, poor fit]"
22,Cc1cccc(C)c1NC(=O)CNCC(=O)Nc1c(C)cccc1C,inactive
23,COCCN(C(=O)COC(=O)CCc1ccccc1)c1c(N)n(Cc2ccccc2)c(=O)[nH]c1=O,inactive
24,Oc1ccc(-c2cn3cc(C(F)(F)F)ccc3n2)cc1,active: 2 µM

# Compounds from the list above that contain nitrogen in an aromatic ring, in the order listed:
row,SMILES,Potency
1,C=CCN1CC(O)=C(c2nc3ccccc3[nH]2)C1=N,"inconclusive: 35.5 µM [activator, single point]"
5,COCC(C)NC(=O)c1cnn2c(C(F)F)cc(-c3ccccc3)nc12 (stereo not given),inactive
6,CN(C(=O)Cn1cc(S(=O)(=O)N2CCN(c3ccccc3F)CC2)c2ccccc2c1=O)c1ccc(Cl)cc1,inactive
7,Cc1cccc(-n2nc(C)cc2N)c1,inactive
10,Cc1nc(C)c2c(=O)cc(-c3ccccc3)[nH]c2n1,"inconclusive: 2.91 µM [inhibitor, full curve, poor fit]"
11,Cc1nc2cc(N3CCN(C)CC3)c(NC(=O)Cc3ccccc3)cc2c(=O)n1Cc1ccccc1,"inconclusive: 2.82 µM [inhibitor, full curve, poor fit]"
13,O=C(O)CSCc1cnn(-c2ccccc2)c1-n1cccc1,inactive
14,CC(C)(C)c1csc(Sc2ccc([N+](=O)[O-])cn2)n1,"inconclusive: 1.26 µM [inhibitor, single point]"
15,CCc1ccc(-c2nc(CN3CCCC(C(=O)NCc4ccc(C)cc4)C3)c(C)o2)cc1 (stereo not given),"inconclusive: 20 µM [activator, single point]"
17,COc1ccc(-c2[nH]c(-c3ccccc3)nc2SCC(=O)Nc2ccc3c(c2)OCCO3)cc1,"inconclusive: 35.5 µM [inhibitor, single point]"
18,O=C(c1ccc(-c2nnc(Nc3cccc(Cl)c3)c3ccccc23)cc1)N1C[C@H]2C[C@H](C1)c1cccc(=O)n1C2,"inconclusive: 6.31 µM [inhibitor, partial curve, poor fit]"
21,COc1cc2cc(C(c3nnnn3C(C)(C)C)N3CCc4ccccc4C3)c(=O)[nH]c2cc1OC (stereo not given),"inconclusive: 0.0046 µM [inhibitor, full curve, poor fit]"
23,COCCN(C(=O)COC(=O)CCc1ccccc1)c1c(N)n(Cc2ccccc2)c(=O)[nH]c1=O,inactive
24,Oc1ccc(-c2cn3cc(C(F)(F)F)ccc3n2)cc1,active: 2 µM

# (cont.)

row,SMILES,Potency
1,COCCNC(=O)c1ccc(CS(=O)(=O)c2ccc(Cl)cc2)o1,inactive
2,O=C(CN1CCN(c2ccccn2)CC1)Nc1cc(C(F)(F)F)ccc1Cl,"inconclusive: 35.5 µM [inhibitor, single point]"
3,Cc1ccc(N(CC(=O)NC2CCCC2)C(=O)CNC(=O)c2cccs2)c(C)c1,"inconclusive: 35.5 µM [inhibitor, partial curve, poor fit]"
4,COc1cc(OC)c(NC(=O)C(NS(=O)(=O)c2cccc3nsnc23)c2ccccc2)cc1Cl (stereo not given),inactive
5,O=c1[nH]c(C2CCN(S(=O)(=O)c3ccc(S(=O)(=O)NC4CC4)cc3)CC2)nc2c1nnn2Cc1ccccc1,"inconclusive: 11.2 µM [inhibitor, partial curve, poor fit]"
6,Cn1c(Cl)c(/C=N/OC(=O)C2CC2)c2ccccc21,inactive
7,Cc1ccc2nc(NC(=O)CN(C)S(=O)(=O)c3ccc(Br)s3)sc2c1,"inconclusive: 3.55 µM [inhibitor, partial curve, poor fit]"
8,CSc1ncccc1C(=O)NC1CC(C)(C)Cc2c1cnn2-c1ccccc1C (stereo not given),"inconclusive: 35.5 µM [inhibitor, single point]"
9,Cc1ccc(-c2[nH]c(-c3ccc(Cl)cc3)nc2SCC(=O)NCC2CCCO2)cc1 (stereo not given),inactive
10,O=C(COc1cccc(NC(=O)c2cccc([N+](=O)[O-])c2)c1)c1ccc(F)cc1,"inconclusive: 11.2 µM [inhibitor, single point]"
11,CC(C)OCCCN1C(=O)c2ccccc2C1C(=O)NC1CCCCC1 (stereo not given),inactive
12,CN1CCN(CCCNC(=O)Cn2c(-c3cccs3)cc3cc(Cl)ccc32)CC1,inactive
13,Cc1cccc(NC(=O)C2(c3ccccc3)CC2(Cl)Cl)c1 (stereo not given),inactive
14,COc1ccc(OC)c(C(c2c(O)nc(SC)[nH]c2=O)c2c(O)nc(SC)[nH]c2=O)c1,inactive
15,O=S(=O)(c1ccc(N2CCN(S(=O)(=O)c3ccc4c(c3)OCCO4)CC2)nc1)N1CCCC1,"inconclusive: 0.0046 µM [inhibitor, full curve, poor fit]"
16,Cc1cc(C(=O)Nc2ccon2)c(C)o1,"inconclusive: 5.62 µM [activator, full curve]"
17,CNC(=S)NNC(=O)c1sccc1OCc1ccc(Cl)cc1Cl,"inconclusive: 29.1 µM [activator, single point]"
18,Cc1ccc(NC(=O)CSc2nc3ccccc3c3nc(CCc4c(C)n[nH]c4C)nn23)c(C)c1,inactive
19,O=C(c1ccc2c(c1)N(Cc1ccc(F)cc1Cl)C(=O)c1ccccc1S2)N1CCC2(CC1)OCCO2,"inconclusive: 7.94 µM [inhibitor, partial curve]"
20,COC(CNC(=O)c1ccc(CS(=O)(=O)c2ccc(C)cc2)o1)OC,inactive
21,COc1ccc(N(C)S(=O)(=O)c2cccc(C(=O)OC(C)C(=O)NC3CCCCC3C)c2)cc1 (stereo not given),"inconclusive: 35.5 µM [inhibitor, single point]"
22,Cc1ccccc1-n1c(C)cc(/C=C2\NC(=O)NC2=O)c1C,"inconclusive: 8.2 µM [inhibitor, partial curve, poor fit]"
23,CCN(CC)CCNC(=S)Nc1ccc2nc(N3CCCC3)cc(C)c2c1,"inconclusive: 10.3 µM [inhibitor, partial curve, poor fit]"
24,CCC(=O)n1nc(NCc2ccccc2OC)nc1NCc1ccccc1OC,"inconclusive: 22.4 µM [inhibitor, single point]"

# Two of the compounds above, as tab-separated lines.
row	SMILES	Potency
1	C=CCN1CC(O)=C(c2nc3ccccc3[nH]2)C1=N	inconclusive: 35.5 µM [activator, single point]
2	Cc1ccc(O)c(NC(=S)NC(=O)C(C)C)c1	inactive

# Further results follow:

row,SMILES,Potency
1,COc1ccc(C(=O)NCCSCc2ccc(C)cc2)cc1,"inconclusive: 35.5 µM [inhibitor, single point]"
2,CCc1nnc(NC(=O)CSc2nc(C)c3c(c2C#N)CCCC3)s1,"inconclusive: 13 µM [inhibitor, partial curve, poor fit]"
3,COc1ccc(-c2noc(CSc3nnc(Cc4ccccc4)n3-c3ccccc3)n2)cc1OC,active: 6.31 µM
4,CC(C)C(NC(=O)c1cccs1)C(=O)NC1=NCCS1 (stereo not given),inactive
5,O=C(NCCc1csc(-c2ccc(F)cc2)n1)c1cccs1,inactive
6,c1ccc(CCC2CCCCN2Cc2nc(-c3ccc4c(c3)OCO4)no2)nc1 (stereo not given),inactive
7,CC(=O)Nc1nc2ccc(-c3nc4ccccc4o3)cc2s1,"inconclusive: 0.794 µM [activator, single point]"
8,O=S(=O)(CCSc1nc2ccccc2s1)c1nc2ccccc2s1,"inconclusive: 29.1 µM [inhibitor, single point]"
9,Nc1nc(Nc2cccc(F)c2)nc(N2CCOCC2)c1[N+](=O)[O-],"inconclusive: 20 µM [inhibitor, single point]"
10,COc1ccc(Cl)cc1NC(=O)Nc1cn(C)nc1C,inactive
11,CCOC(=O)c1cnc2c(ccc3ccccc32)c1Nc1ccccc1OC,"inconclusive: 3.55 µM [activator, single point]"
12,CCn1cc(C(=O)NCc2ccco2)c(=O)c2cc(F)c(N3CCN(C(=O)c4ccco4)CC3)cc21,"inconclusive: 25.9 µM [inhibitor, partial curve]"
13,CCSc1nnc(NC(=O)c2csc3c2CCC(C)C3)s1 (stereo not given),inactive
14,COc1cccc(NC(=O)c2sc3nc4n(c(=O)c3c2C)CCC4)c1,"inconclusive: 35.5 µM [inhibitor, single point]"
15,Cc1ccc(-c2csc(NC(=O)CN3CCOCC3)n2)cc1C,"inconclusive: 25.1 µM [inhibitor, single point]"
16,Cc1ccc(C(CC(=O)O)NC(=O)CN2C(=O)c3ccccc3C2=O)cc1 (stereo not given),inactive
17,COc1ccc2[nH]c(=O)c(CN(Cc3ccco3)C(c3nnnn3Cc3ccccc3)C(C)C)cc2c1 (stereo not given),"inconclusive: 18.3 µM [inhibitor, partial curve, poor fit]"
18,CCCCOc1ccc(CNC(=O)c2ccc(-c3nc(CN4CCc5ccccc54)c(C)o3)cc2)cc1,"inconclusive: 1 µM [inhibitor, full curve, poor fit]"
19,Cn1cccc1C(=O)NC(=O)COC(=O)C12CC3CC(CC(O)(C3)C1)C2,"inconclusive: 1.58 µM [activator, partial curve]"
20,Nc1nonc1-n1nnc(C(=O)N/N=C/c2ccc(F)cc2)c1-c1cccs1,inactive
21,c1ccc2oc(NC3=NCN(CC4CCCO4)CN3)nc2c1 (stereo not given),"inconclusive: 18.3 µM [activator, single point]"
22,Cc1c(NC(=O)C(C)OC(=O)c2cc3c4ccccc4n(C)c3s2)c(=O)n(-c2ccccc2)n1C (stereo not given),"inconclusive: 12.6 µM [inhibitor, partial curve, poor fit]"
